PubChem BioAssay AID2685 (National Center for Advancing Translational Sciences (NCATS), 2010)
Out of some 320,000 compounds screened, about 2,100 (0.66%) were called active. Inconclusive results, whose numbers are uncertain, are shown with a selection of clear calls. Calls follow the shape of the dose curve; as a rule, active = well fitted inhibition curve with a large enough effect in the signal ratio, with a control signal flat (not every such curve was filed as active); inconclusive = small, poorly fitted or top-dose-only effect, or effect the other way, or a change in a side signal; inactive = flat fitted curve, though single readings scatter; the % refers to the signal ratio. Potencies of inconclusive entries are doubtful fits and often do not repeat.

Test: qHTS Assay for Lipid Storage Modulators in Drosophila S3 Cells
Details: BODIPY lipid droplet fluorescence, 18-24 h, cells fed with added oleic acid; lipid storage change, negative = inhibition: at 46.1 µM (top of the series) unless noted
How it was run: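 Drosophila S3 cells got compounds at several concentrations plus oleic acid (400 uM solution). Laser-scanning cytometry with 488 nm excitation read lipid droplets at 500-530 nm and cells at 575-640 nm. Percent activity was relative to 20 uM Triacsin C.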
% is scaled to controls: 0 for no effect and ±100 for the full control effect; potency is read from the fitted curve at half-maximal effect.

Structure (SMILES) | Potency | lipid storage change, negative = inhibition
C/C(=N\Nc1ccc(Cl)c(Cl)c1)c1ccc(-n2ccnc2)cc1 | inconclusive: 130 nM [activator, full curve, poor fit] | 
COc1ccccc1CNC(=O)c1cc(C)nc2ccccc12 |  | inconclusive: 32.9%
Cc1ccc(C)c(S(=O)(=O)N2CCCC2CNC(=O)C(=O)NCc2ccccn2)c1 (configuration not stated) |  | inconclusive: 40.6% [at 0.0737 µM]
O=C(CCC(=O)Nc1ccc(F)cc1)N/N=C/c1cccnc1 | inconclusive: 820 nM [activator, full curve] | 
COc1cccc(CN(Cc2ccco2)S(=O)(=O)c2ccc(S(=O)(=O)NCc3ccccc3)cc2)c1OC |  | inconclusive: -26.9%
Cc1nccn1CCOc1ccc(Cl)cc1 | inconclusive: 13000 nM [activator, partial curve] | 
O=C(NC1CC2CCCC(C1)N2C(=O)NCc1ccccc1)C1CC1 (configuration not stated) |  | inconclusive: -41.7%
CCc1n[nH]c(=O)n1Cn1c(CC)n[nH]c1=O | inconclusive: 29100 nM [falling, single point] | 
CC(Oc1ccccc1)C(=O)N(CCC1=CCCCC1)c1c(N)n(Cc2ccccc2)c(=O)[nH]c1=O (configuration not stated) | inconclusive: 32600 nM [falling, single point] | 
CC1(C)N=C(C(=O)c2ccccc2)N(O)C1(C)O (configuration not stated) | inconclusive: 130 nM [activator, full curve, poor fit] | 
COc1ccc(CN(C)C(=O)Cc2ccsc2)c(OC)c1OC | inconclusive: 4610 nM [falling, single point] | 
O=C(CN1C(=O)c2cccc3cccc1c23)NCc1ccc2c(c1)OCO2 |  | inconclusive: -5.54%
Cc1cc([N+](=O)[O-])ccc1NC(=O)c1ccc(NC(=O)C(C)C)cc1 |  | inconclusive: -37.4% [cytotoxic] [at 0.00295 µM]
O=C(NC(=S)Nc1ccccc1Cl)c1cncc(C#Cc2ccccc2)c1 |  | inconclusive: 5.12%
Cc1ccc(O)c(C(=O)c2cc(C(=O)NCCc3ccccc3)c(=O)n(CCc3ccccc3)c2)c1 | inconclusive: 580 nM [activator, partial curve] | 
O=C(NCC(=O)N1CCCCCCC1)c1ccc(Cl)cc1 |  | inconclusive: 5.2%
COc1cc(SC)ccc1C(=O)N1CC(C)OC(C)C1 (configuration not stated) |  | inconclusive: 8.15%
COc1ccc(C(=O)Nc2ccc(NC(=O)Cc3ccccc3)cn2)cc1 | inconclusive: 2910 nM [activator, full curve] | 
CC(C)c1ccc(S(=O)(=O)N2CCN(CC(=O)c3ccc(O)c(O)c3)CC2)cc1 |  | inconclusive: 10.4%
O=C(NCC1CCCCC1)C1CCN(C(=O)NC2CCCCC2)CC1 |  | inconclusive: 57.9%
COc1cc(NS(=O)(=O)c2ccc3ccccc3c2)c2ncccc2c1 |  | inconclusive: -39.8%
CCOC(=O)C1=C(C)N(C)C(=S)NC1c1ccc(Cl)cc1 (configuration not stated) |  | inconclusive: -15.1%
COc1cc(F)c(C2=CC(=O)C[C@H](c3ccc(F)cc3)C2)cc1F | active: 731 nM | 
CC(=O)c1c(C)[nH]c(C(=O)NC2CCCCC2)c1C |  | inconclusive: -0.0153%
O=C(COC(=O)CCNS(=O)(=O)c1cccs1)Nc1ccccc1 | inconclusive: 2310 nM [activator, single point] | 
O=C1CN(C(=O)c2cccc([N+](=O)[O-])c2)CC(=O)N1 | inconclusive: 29100 nM [activator, single point] | 

Structure (SMILES) | Potency | lipid storage change, negative = inhibition
c1cnc2ccc(C(c3nnnn3C3CCCC3)N3CCN(c4nc5ccccc5s4)CC3)cc2c1 (configuration not stated) | inconclusive: 2310 nM [activator, partial curve] | 
Cc1ccsc1/C=C1\SC(N)=NC1=O |  | inconclusive: -11.6%
COc1ccc(C(=O)NNC(=S)NC(=O)c2cccs2)cc1 |  | inconclusive: -73.8%
COc1ccc(/C=N/NC(=S)Nc2ccccc2)cc1COc1ccc(F)cc1F | inconclusive: 18400 nM [activator, single point] | 
COc1ccc(CN(C)C(=O)c2ccc(NS(=O)(=O)c3ccccc3)cc2)c(OC)c1 |  | inconclusive: 24.5%
CC(=O)Nc1ccc(/C=N/NC(=O)c2cc3ccccc3nc2C)cc1 | inconclusive: 146 nM [falling, full curve] | 
O=C(NCc1ccco1)c1cc2c(s1)CSC2 | inconclusive: 2910 nM [activator, partial curve, poor fit] | 
C[C@@H]1CN(Cc2nc(Cc3ccccc3F)no2)C[C@H](C)O1 |  | inconclusive: -1.69%
COc1ccc(OCC(=O)N/N=C/c2ccncc2)cc1 |  | inconclusive: 0.855%
CSc1ccc(Cl)c(C(=O)OCC(=O)NCc2ccco2)c1 | inconclusive: 2060 nM [activator, single point] | 
Oc1c(Cl)cccc1C=Nc1cc(C(F)(F)F)ccc1N1CCCC1 | inconclusive: 10300 nM [falling, single point] | 
CN1C(=S)SC(C)(C)C1(C)NO (configuration not stated) | active: 1640 nM | 
COc1ccc(-n2c(=S)[nH]c3cc(C(=O)N(C)Cc4ccccc4)ccc3c2=O)cc1 | inconclusive: 29100 nM [falling, single point] | 
CCOC(=O)C1(CC2CC2)CCN(Cc2ccc(C(=O)OC)cc2)CC1 |  | inconclusive: -23.3%
CNC(=O)C1=C(C)Nc2nc3ccccc3n2C1c1ccc(F)cc1 (configuration not stated) |  | inconclusive: 8.93%
CC(=O)COc1ccc2c(C)c(-c3ccccc3)c(=O)oc2c1 |  | inconclusive: 3.44%
CCN1CCc2c(sc(NC(=S)NC(=O)c3ccc(Cl)cc3)c2C(N)=O)C1 |  | inactive: -5.13%
CC(O)c1nc2ccc(C(=O)O)cc2[nH]1 (configuration not stated) |  | inactive: -2.22%
CC(C)Oc1ccccc1/C=N/NC(=O)c1ccccc1Cl | inconclusive: 6.5 nM [falling, full curve, poor fit] | 
CCCCNC(=O)Cn1c(-c2ccc(OC)cc2)noc1=O |  | inconclusive: 71.5%
COc1cccc(-c2ccc(SCc3ccccn3)nn2)c1 |  | inconclusive: -12.9%
NC(=O)c1ccc(NC(=O)CCCNC(=O)c2ccc(Cl)cc2)cc1 |  | inconclusive: 13.7%
Cc1ccc(NC(=S)N2CCN(c3ccccc3F)CC2)c(C)c1 | inconclusive: 2590 nM [activator, full curve, poor fit] | 
COCC(=O)Nc1ccc(Br)cc1C |  | inconclusive: 7.92%
COC(=O)C(C)(C)NC(=O)c1cccs1 | inconclusive: 1300 nM [activator, partial curve] | 
COc1cccc(CNC(=O)c2ccc(Cl)c(NC3=NC4CS(=O)(=O)CC4S3)c2)c1 (configuration not stated) |  | inconclusive: -27.7%

Structure (SMILES) | Potency | lipid storage change, negative = inhibition
COc1ccccc1CNC(=O)C1CCN(S(=O)(=O)c2ccc3c(c2)CC(C)N3C(=O)C2CC2)CC1 (configuration not stated) |  | inconclusive: 12.4%
COc1ccc(CCC(=O)OCC(=O)Nc2sccc2C(N)=O)cc1 | active: 6510 nM | 
COc1ccc(N(CC(=O)NCCSCc2cccc(Cl)c2)S(C)(=O)=O)cc1 |  | inconclusive: 30.2%
COc1ccc2[nH]c3c(=O)n(Cc4ccc(C(=O)N5CCC(C(N)=O)CC5)cc4)c(=S)[nH]c3c2c1 |  | inconclusive: -41%
CCN(CC)S(=O)(=O)c1ccc(N(C)C)c(NC(=O)CC(NC(C)=O)c2ccccc2)c1 (configuration not stated) |  | inconclusive: 10.9%
Cc1cc(Cl)ccc1OCC(=O)N/N=C1\CC2C=CCC12 (configuration not stated) | inconclusive: 3260 nM [activator, partial curve] | 
CCC1Oc2ccccc2N(CC(=O)NCc2cccs2)C1=O (configuration not stated) |  | inconclusive: -6.29%
O=C1c2ccccc2C(Nc2ccc(Cl)cn2)N1Cc1ccccc1 (configuration not stated) |  | inconclusive: -19.6%
CCc1ccc(NS(=O)(=O)c2ccc3oc(=O)ccc3c2)cc1 | inconclusive: 29100 nM [falling, single point] | 
COc1cccc(/C=N/NC(N)=S)c1OS(=O)(=O)c1ccccc1 |  | inactive: -5.43%
COCCCn1c(SC(C)C(=O)NC2CC2)nc2ccccc2c1=O (configuration not stated) |  | inconclusive: 47.5%
CCC1CCCCN1CCNC(=O)C1CCN(S(=O)(=O)c2c(C)noc2C)CC1 (configuration not stated) |  | inconclusive: 1.79%
CC(=O)N1c2ccc(S(=O)(=O)N(C)Cc3ccccc3)cc2CC1C (configuration not stated) | inconclusive: 11600 nM [falling, single point] | 
C=CCc1cc(S(=O)(=O)c2ccc(O)c(CC=C)c2)ccc1O | inconclusive: 29100 nM [activator, single point] | 
CCC(=Cc1ccc(CC)cn1)CC |  | inconclusive: -3.85%
CC(C)c1nc(SCC(=O)N2CCOCC2)c2c(=O)n(C)c(=O)n(C)c2n1 |  | inactive: 8.15% [at 9.22 µM]
Clc1ccc(CNC2CCCC2)cc1 | active: 20600 nM | 
COc1ccc(S(=O)(=O)N2CCCCC2)cc1NC(=O)[C@@H]1CCCN1C(=O)c1cccs1 |  | inconclusive: -24.6%
COc1cccc(CNS(=O)(=O)/C=C/c2ccc3c(c2)OCO3)c1 |  | inconclusive: 66%
O=C(Cc1c[nH]c2ccccc12)NCC(=O)Nc1ccc(F)c(F)c1F |  | inconclusive: 126%
Cc1oc(C)c2c(=O)ccc3c(c12)OC(N)=C(C#N)C3c1ccc(F)cc1 (configuration not stated) |  | inconclusive: -4.3%
COc1ccc(-c2nnc(SCC(=O)c3cccs3)o2)cc1 | inconclusive: 2060 nM [activator, partial curve, poor fit] | 
COc1ccc(OC[C@@H](O)CNC(=O)c2cccc3c2C(=O)c2ccc(Cl)cc2S3(=O)=O)cc1 |  | inactive: 6.63%
COc1cc(NS(=O)(=O)c2ccc(N/C=C\C(=O)c3ccc(OC)c(OC)c3)cc2)nc(OC)n1 |  | inconclusive: 3.91%
S=C(NCc1cccs1)Nc1ccccc1Cl |  | inconclusive: 37%

3 entries picked at random from the list so far:
Structure (SMILES) | Potency | lipid storage change, negative = inhibition
CC(=O)N1c2ccc(S(=O)(=O)N(C)Cc3ccccc3)cc2CC1C (configuration not stated) | inconclusive: 11600 nM [falling, single point] | 
COc1ccc(CCC(=O)OCC(=O)Nc2sccc2C(N)=O)cc1 | active: 6510 nM | 
CCN(CC)S(=O)(=O)c1ccc(N(C)C)c(NC(=O)CC(NC(C)=O)c2ccccc2)c1 (configuration not stated) |  | inconclusive: 10.9%
